Assay results from the supplement of paper PMC12819154, “High-throughput peptide-centric local stability assay extends protein–ligand identification to membrane proteins, tissues and bacteria” (Nature Structural & Molecular Biology, 2025).
The other results are listed elsewhere or left out. Small differences around the control level are noise.

Sequences of proteins named here, by UniProt entry; tags and fusion partners are left off. A change or cut given only in a name is not applied to a line headed by its entry.
UniProt A6NFQ7: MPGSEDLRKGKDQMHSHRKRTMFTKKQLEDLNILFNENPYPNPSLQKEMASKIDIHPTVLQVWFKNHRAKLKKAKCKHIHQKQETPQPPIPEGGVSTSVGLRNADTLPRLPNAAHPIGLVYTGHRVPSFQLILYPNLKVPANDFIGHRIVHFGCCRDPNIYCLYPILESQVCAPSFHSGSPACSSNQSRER
UniProt O14530: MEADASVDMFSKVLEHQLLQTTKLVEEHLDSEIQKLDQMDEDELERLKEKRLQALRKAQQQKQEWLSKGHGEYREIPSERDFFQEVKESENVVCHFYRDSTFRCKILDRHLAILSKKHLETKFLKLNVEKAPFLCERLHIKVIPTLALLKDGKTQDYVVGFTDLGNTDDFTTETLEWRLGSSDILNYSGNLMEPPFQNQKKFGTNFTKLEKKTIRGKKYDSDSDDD
UniProt O15062: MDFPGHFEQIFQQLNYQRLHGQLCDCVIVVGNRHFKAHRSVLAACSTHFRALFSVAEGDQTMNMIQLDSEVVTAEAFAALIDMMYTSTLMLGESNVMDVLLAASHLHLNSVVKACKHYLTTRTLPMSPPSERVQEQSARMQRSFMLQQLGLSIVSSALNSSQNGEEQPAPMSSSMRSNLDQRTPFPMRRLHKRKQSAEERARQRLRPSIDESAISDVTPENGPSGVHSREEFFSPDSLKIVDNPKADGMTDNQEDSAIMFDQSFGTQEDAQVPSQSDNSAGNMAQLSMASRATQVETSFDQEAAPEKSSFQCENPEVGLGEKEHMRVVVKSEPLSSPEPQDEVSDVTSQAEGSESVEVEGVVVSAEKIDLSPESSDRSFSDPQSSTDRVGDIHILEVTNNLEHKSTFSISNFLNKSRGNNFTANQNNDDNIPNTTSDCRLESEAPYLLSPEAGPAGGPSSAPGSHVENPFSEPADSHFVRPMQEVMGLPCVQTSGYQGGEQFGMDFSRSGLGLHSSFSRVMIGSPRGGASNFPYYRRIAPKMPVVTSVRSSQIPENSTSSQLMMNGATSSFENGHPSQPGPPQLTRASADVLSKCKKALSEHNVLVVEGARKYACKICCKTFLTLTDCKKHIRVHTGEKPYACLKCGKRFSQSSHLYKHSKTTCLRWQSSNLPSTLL
UniProt O14653: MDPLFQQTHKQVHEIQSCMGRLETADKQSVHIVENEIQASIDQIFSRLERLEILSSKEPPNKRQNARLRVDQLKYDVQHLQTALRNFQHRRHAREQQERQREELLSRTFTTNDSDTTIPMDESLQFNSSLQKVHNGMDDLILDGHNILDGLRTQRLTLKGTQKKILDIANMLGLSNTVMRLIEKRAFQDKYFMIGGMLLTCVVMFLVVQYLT
UniProt A6NIE6: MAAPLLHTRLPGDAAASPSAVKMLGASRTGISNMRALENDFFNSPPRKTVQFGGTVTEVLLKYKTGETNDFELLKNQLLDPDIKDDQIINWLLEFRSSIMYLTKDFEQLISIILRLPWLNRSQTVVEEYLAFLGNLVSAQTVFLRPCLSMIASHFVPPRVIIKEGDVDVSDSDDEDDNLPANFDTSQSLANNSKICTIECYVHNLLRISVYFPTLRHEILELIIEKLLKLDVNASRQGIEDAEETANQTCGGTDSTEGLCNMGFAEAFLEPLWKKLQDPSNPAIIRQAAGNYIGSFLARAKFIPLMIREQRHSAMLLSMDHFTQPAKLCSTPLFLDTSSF
UniProt B7Z1M9: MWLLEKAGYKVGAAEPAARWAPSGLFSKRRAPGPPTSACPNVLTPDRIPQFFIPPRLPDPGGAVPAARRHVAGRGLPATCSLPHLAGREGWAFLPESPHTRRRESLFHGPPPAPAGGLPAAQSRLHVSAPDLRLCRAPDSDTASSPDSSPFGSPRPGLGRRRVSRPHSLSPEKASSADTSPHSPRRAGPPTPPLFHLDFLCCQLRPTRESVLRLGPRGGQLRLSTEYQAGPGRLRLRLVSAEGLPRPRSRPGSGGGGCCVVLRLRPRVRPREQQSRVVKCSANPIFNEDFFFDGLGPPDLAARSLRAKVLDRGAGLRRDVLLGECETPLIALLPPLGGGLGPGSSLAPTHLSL
UniProt O14867: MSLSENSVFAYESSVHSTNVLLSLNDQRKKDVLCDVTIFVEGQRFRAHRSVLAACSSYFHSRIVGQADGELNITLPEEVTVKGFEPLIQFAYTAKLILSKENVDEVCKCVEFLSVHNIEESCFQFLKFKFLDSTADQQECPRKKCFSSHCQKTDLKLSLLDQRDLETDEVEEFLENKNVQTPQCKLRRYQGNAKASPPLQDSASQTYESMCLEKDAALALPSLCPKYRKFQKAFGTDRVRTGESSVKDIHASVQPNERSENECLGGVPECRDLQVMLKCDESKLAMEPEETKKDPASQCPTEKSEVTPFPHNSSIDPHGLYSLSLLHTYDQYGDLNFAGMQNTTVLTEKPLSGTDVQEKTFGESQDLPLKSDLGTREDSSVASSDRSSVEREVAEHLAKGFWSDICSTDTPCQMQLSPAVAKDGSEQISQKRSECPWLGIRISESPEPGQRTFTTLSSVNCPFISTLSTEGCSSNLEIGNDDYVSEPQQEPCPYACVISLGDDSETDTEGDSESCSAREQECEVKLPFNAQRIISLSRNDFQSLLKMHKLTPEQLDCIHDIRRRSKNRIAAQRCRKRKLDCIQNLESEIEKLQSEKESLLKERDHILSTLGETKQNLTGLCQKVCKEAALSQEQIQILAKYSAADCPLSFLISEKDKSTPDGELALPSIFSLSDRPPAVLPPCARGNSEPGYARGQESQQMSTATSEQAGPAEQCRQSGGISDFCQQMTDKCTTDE
UniProt O15084: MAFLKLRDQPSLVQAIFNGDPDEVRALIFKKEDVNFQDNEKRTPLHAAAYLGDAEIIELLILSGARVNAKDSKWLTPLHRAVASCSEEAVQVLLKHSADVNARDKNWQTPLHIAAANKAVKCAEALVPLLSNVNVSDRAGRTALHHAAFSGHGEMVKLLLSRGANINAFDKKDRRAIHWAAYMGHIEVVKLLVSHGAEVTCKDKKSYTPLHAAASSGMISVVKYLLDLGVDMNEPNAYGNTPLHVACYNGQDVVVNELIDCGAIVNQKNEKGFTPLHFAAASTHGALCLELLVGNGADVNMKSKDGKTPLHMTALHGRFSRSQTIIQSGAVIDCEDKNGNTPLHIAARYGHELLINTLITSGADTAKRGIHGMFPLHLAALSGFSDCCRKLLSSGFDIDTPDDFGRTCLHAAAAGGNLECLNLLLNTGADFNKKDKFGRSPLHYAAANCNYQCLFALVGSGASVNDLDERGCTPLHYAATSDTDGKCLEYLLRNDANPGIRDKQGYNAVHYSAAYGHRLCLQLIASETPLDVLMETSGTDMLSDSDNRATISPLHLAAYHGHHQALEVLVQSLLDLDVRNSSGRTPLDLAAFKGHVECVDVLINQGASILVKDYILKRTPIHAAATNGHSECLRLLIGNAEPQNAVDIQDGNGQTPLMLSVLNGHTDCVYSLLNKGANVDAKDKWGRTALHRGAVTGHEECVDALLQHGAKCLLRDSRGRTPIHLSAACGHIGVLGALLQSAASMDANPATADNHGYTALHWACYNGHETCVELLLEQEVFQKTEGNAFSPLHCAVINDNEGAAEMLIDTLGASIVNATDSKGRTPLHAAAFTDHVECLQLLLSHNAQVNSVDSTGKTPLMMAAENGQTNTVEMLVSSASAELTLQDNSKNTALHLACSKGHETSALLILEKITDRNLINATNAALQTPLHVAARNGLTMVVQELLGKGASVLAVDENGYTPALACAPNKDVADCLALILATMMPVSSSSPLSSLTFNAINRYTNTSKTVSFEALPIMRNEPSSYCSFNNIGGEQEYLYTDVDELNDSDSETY
UniProt O00400: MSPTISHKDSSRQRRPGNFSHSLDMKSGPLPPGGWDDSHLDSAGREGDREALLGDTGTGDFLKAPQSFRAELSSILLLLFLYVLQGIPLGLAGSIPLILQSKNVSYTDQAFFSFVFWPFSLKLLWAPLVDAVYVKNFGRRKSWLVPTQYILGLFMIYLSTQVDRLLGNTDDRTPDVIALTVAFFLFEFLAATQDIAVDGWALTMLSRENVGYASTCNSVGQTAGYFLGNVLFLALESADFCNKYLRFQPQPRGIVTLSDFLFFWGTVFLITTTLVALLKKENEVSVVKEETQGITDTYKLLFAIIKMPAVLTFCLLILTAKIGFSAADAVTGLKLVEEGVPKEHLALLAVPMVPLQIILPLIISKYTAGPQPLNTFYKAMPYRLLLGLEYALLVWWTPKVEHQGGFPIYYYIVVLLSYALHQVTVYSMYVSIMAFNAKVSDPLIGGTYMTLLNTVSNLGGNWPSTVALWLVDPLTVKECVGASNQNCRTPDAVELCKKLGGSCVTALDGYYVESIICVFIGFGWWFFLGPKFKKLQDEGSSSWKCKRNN
UniProt O00411: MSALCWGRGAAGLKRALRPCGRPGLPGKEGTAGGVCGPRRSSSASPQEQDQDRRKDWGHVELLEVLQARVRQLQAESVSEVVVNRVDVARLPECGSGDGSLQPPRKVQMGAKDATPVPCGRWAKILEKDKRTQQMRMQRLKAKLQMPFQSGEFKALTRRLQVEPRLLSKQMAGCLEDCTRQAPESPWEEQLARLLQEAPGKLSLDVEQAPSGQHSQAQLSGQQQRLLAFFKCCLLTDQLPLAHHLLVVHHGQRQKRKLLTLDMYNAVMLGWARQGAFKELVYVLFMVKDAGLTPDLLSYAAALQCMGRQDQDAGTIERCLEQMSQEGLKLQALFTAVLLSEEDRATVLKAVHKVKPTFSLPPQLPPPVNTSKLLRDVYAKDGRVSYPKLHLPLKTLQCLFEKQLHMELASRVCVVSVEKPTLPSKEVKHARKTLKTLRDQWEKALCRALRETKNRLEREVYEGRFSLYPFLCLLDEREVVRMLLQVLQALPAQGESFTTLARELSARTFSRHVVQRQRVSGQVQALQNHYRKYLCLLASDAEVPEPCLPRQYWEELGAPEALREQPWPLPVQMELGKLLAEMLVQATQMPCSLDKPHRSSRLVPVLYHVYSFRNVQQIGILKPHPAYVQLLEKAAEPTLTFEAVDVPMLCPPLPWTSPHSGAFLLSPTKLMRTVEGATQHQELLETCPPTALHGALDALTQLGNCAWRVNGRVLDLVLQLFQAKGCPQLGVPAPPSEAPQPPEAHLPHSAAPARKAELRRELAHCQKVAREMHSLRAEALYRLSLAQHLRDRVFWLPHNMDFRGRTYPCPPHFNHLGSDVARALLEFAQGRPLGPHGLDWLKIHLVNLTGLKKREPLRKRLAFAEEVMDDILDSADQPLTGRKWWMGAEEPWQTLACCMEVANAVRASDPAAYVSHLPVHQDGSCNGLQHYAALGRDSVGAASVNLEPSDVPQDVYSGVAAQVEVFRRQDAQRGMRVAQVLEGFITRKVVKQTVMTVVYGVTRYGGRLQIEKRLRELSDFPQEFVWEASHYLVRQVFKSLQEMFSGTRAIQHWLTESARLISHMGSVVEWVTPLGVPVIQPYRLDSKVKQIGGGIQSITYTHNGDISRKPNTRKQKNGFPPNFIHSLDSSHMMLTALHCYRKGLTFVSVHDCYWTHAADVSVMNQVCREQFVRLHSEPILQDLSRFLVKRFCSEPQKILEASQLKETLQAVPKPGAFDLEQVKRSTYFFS
UniProt O00559: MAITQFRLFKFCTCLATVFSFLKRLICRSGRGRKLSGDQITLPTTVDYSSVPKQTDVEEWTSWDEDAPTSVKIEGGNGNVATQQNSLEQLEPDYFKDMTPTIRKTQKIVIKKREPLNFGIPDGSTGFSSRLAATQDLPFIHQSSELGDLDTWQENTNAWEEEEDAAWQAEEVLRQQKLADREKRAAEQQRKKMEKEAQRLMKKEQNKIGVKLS
UniProt O15211: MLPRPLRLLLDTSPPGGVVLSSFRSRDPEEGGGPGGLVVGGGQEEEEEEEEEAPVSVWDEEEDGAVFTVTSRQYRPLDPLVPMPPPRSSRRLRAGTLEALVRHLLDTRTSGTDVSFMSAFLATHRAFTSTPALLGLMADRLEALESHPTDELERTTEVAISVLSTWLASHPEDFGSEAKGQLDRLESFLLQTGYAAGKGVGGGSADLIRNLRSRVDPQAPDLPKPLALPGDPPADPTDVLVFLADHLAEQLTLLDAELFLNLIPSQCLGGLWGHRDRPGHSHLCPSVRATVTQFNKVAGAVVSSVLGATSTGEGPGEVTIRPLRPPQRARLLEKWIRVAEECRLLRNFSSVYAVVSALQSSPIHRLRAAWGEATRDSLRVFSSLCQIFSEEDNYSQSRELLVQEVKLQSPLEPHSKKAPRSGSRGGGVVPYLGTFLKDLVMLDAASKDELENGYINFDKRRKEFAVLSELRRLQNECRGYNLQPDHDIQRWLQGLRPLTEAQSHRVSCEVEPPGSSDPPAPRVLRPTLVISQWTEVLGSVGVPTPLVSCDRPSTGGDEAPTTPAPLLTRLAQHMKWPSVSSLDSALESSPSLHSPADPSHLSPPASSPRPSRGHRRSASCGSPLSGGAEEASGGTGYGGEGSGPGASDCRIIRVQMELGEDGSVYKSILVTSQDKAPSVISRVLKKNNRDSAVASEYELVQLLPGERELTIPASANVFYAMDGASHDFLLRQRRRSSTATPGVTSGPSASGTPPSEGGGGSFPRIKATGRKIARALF

Compound: CN[C@@H]1C[C@H]2O[C@@](C)([C@@H]1OC)n1c3ccccc3c3c4c(c5c6ccccc6n2c5c31)C(=O)NC4 [staurosporine]
Assay: log2 fold change of tryptic peptide abundance, ligand vs vehicle (limited proteolysis) (log2 ratio); higher = more trypsin-susceptible (destabilized)
Details: ligand concentration: 20 uM; sample: K562 cleared lysate; digestion: 4 min, 22 C (HT-PELSA RT4min, Orbitrap Astral)

Target | log2 fold change
ARPC2 (peptide sequence: DNTINLIHTFR, peptide start residue: 238) (UniProt O15144) | 0.424
UniProt A6NFQ7 (peptide sequence: KRTMFTK, peptide start residue: 19) | 0.0586
TXNDC9 (peptide sequence: ESENVVCHFYR, peptide start residue: 88) (UniProt O14530) | -0.362
TNFRSF10B (peptide sequence: DASVHTLLDALETLGER, peptide start residue: 396) (UniProt O14763) | -0.476
ZBTB5 (peptide sequence: EEFFSPDSLK, peptide start residue: 230) (UniProt O15062) | 0.29
WIPF3 (peptide sequence: TPGPWLQAEAVGQSSDDIK, peptide start residue: 453) (UniProt A6NGB9) | -0.305
GOSR2 (peptide sequence: LEILSSKEPPNKR, peptide start residue: 51) (UniProt O14653) | 0.236
POLR1C (peptide sequence: CFSPGVIEVQEVQGK, peptide start residue: 256) (UniProt O15160) | -0.297
NKRF (peptide sequence: CRVFLQDHCLAEGYGTK, peptide start residue: 378) (UniProt O15226) | -0.674
NFKBIE (peptide sequence: HGDTALHVACQR, peptide start residue: 326) (UniProt O00221) | 0.14
SPTBN2 (peptide sequence: GPAPSAMPQSR, peptide start residue: 2188) (UniProt O15020) | 0.317
E2F3 (peptide sequence: RLELGESGHQYLSDGLK, peptide start residue: 135) (UniProt O00716) | 0.48
SPTLC2 (peptide sequence: ANGCVANGEVR, peptide start residue: 16) (UniProt O15270) | -0.331
MYO9A (peptide sequence: GVYSVIDQLSR, peptide start residue: 2169) (UniProt B2RTY4) | 0.346
UniProt E9PRG8 (peptide sequence: TSEPQLKR, peptide start residue: 97) | 0.176
EXOC5 (peptide sequence: EIIEQMEMK, peptide start residue: 523) (UniProt O00471) | 0.472
SDCBP (peptide sequence: ITSIVKDSSAAR, peptide start residue: 218) (UniProt O00560) | 0.566
BCKDK (peptide sequence: QLLDDHKDVVTLLAEGLR, peptide start residue: 157) (UniProt O14874) | -0.288

Nine entries from above, in markdown.

| Target | log2 fold change |
| --- | --- |
| NFKBIE (peptide sequence: HGDTALHVACQR, peptide start residue: 326) (UniProt O00221) | 0.14 |
| SPTBN2 (peptide sequence: GPAPSAMPQSR, peptide start residue: 2188) (UniProt O15020) | 0.317 |
| E2F3 (peptide sequence: RLELGESGHQYLSDGLK, peptide start residue: 135) (UniProt O00716) | 0.48 |
| SPTLC2 (peptide sequence: ANGCVANGEVR, peptide start residue: 16) (UniProt O15270) | -0.331 |
| MYO9A (peptide sequence: GVYSVIDQLSR, peptide start residue: 2169) (UniProt B2RTY4) | 0.346 |
| UniProt E9PRG8 (peptide sequence: TSEPQLKR, peptide start residue: 97) | 0.176 |
| EXOC5 (peptide sequence: EIIEQMEMK, peptide start residue: 523) (UniProt O00471) | 0.472 |
| SDCBP (peptide sequence: ITSIVKDSSAAR, peptide start residue: 218) (UniProt O00560) | 0.566 |
| BCKDK (peptide sequence: QLLDDHKDVVTLLAEGLR, peptide start residue: 157) (UniProt O14874) | -0.288 |

Continued:

Target | log2 fold change
UniProt A6NIE6 (peptide sequence: ALENDFFNSPPRK, peptide start residue: 36) | 0.209
UniProt B7Z1M9 (peptide sequence: LVSAEGLPR, peptide start residue: 238) | 0.153
BACH1 (peptide sequence: TFGESQDLPLKSDLGTR, peptide start residue: 360) (UniProt O14867) | -0.28
PFAS (peptide sequence: FLRPEDPTRPSR, peptide start residue: 283) (UniProt O15067) | 0.384
PER2 (peptide sequence: SKGQPSER, peptide start residue: 766) (UniProt O15055) | -0.0732
ANKRD28 (peptide sequence: GHETSALLILEK, peptide start residue: 901) (UniProt O15084) | -1.01
BTAF1 (peptide sequence: EQEAGVLAMDALHR, peptide start residue: 1481) (UniProt O14981) | -0.208
UniProt A8K8P3 (peptide sequence: IAAGAGDGTLETK, peptide start residue: 963) | -0.357
SLC33A1 (peptide sequence: RPGNFSHSLDMK, peptide start residue: 15) (UniProt O00400) | -0.268
UniProt O15391 (peptide sequence: VHVCAECGK, peptide start residue: 324) | 0.221
UniProt B7ZLF3 (peptide sequence: IHSGEKPHQCAQCGR, peptide start residue: 117) | 0.828
POLRMT (peptide sequence: LHSEPILQDLSR, peptide start residue: 1174) (UniProt O00411) | 0.28
UniProt D6RIA3 (peptide sequence: KMQREHEFK, peptide start residue: 820) | 0.202
INPPL1 (peptide sequence: AAAEELLAR, peptide start residue: 29) (UniProt O15357) | 0.333
EBAG9 (peptide sequence: KREPLNFGIPDGSTGFSSR, peptide start residue: 112) (UniProt O00559) | -0.199
UniProt O14966 (peptide sequence: LQLWDIAGQER, peptide start residue: 77) | 0.219
RGL2 (peptide sequence: QYRPLDPLVPMPPPR, peptide start residue: 73) (UniProt O15211) | 0.269
